{
  "source": "patent US6107094",
  "assay_in_all_cases": "enzyme reaction in vitro",
  "key": {"[1]": {"test_system": "dsRNase activity of T24 cell extract (Homo sapiens)", "settings": "protein in an extract"}, "[2]": {"molecular_target": "T1, RNase H (Escherichia coli) (UniProt P0A7Y4)", "T1 sequence (looked up, limits assumed)": "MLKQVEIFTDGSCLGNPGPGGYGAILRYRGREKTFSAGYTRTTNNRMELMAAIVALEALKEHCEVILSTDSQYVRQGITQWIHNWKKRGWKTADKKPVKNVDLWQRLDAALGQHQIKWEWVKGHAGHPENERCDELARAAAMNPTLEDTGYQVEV", "settings": "label: 32P 5' end of sense RNA"}, "[3]": {"test_system": "dsRNase activity of rat liver nuclear extract (Rattus norvegicus)", "settings": "both strands 2'-OMe PS wings flanking 8-ribonucleotide gap; sense gap phosphodiester; Mg2+ required; 37 C, 240 min; protein in an extract; label: 32P 5' end of sense strand"}, "[4]": {"test_system": "dsRNase (partially purified from rat liver cytosol, ion exchange and gel filtration) (Rattus norvegicus)", "settings": "both strands 2'-OMe PS wings flanking 8-ribonucleotide gap; sense gap phosphodiester; Mg2+ required; 10 mM MgCl2, pH 7.5, 37 C; several sites in gap; purified native protein; label: 32P 5' end of sense strand"}, "[5]": {"settings": "antisense strand 2'-OMe wings with ribonucleotide gap, T24 homogenate, only SEQ 8 gapmer supported cleavage, label: 32P target RNA"}},
  "note": "For part of these data: No signal at the amounts used counts as a negative. For part of these data: Tags and fusion partners may be left off the protein sequences shown. For part of these data: For at least one entry, the source does not settle the construct or the ends of the probe. For part of these data: Weaker means in comparison with the reference protein, sequence or condition of that experiment.",
  "data": [
    {"sequence": "AAUGCAUGUCACAGGCGGGA / UCCCGCCUGUGACAUGCAUU [c-raf RNA gapmer:RNA duplex (SEQ 7/8)]", "values": [
      {"measurement": "activity on this sequence", "setting": "[1]; antisense strand 2'-OMe wings with ribonucleotide gap, T24 homogenate, much slower than DNA gapmer, label: 32P target RNA", "value": "less active"}
    ]},
    {"sequence": "CCGAAUGUGACCGCCUCCCG / CGGGAGGCGGUCACAUUCGG [c-raf RNA gapmer:RNA duplex (SEQ 3/4)]", "values": [
      {"measurement": "activity on this sequence", "setting": "[1]; [5]", "value": "not active"}
    ]},
    {"sequence": "GGGCGCCGUCGGUGUGG / CCACACCGACGGCGCCC [Ha-ras 9 DNA gapmer:RNA duplex]", "values": [
      {"measurement": "activity on this sequence", "setting": "[2]; antisense strand with 9-deoxynucleotide gap, modified wings, cleavage restricted to DNA:RNA portion", "value": "active"}
    ]},
    {"sequence": "GGGCGCCGUCGGUGUGG / CCACACCGACGGCGCCC [Ha-ras 9 RNA gapmer:RNA duplex]", "values": [
      {"measurement": "activity on this sequence", "setting": "[1]; antisense strand 2'-OMe wings with 9-ribonucleotide gap, PS throughout, cytosolic extract, 37 C, cleavage within RNA:RNA portion, nuclear extract comparable, label: 32P 5' end of sense RNA", "value": "active"},
      {"measurement": "activity on this sequence", "setting": "[2]; antisense strand 2'-OMe wings with 9-ribonucleotide gap, PS throughout, no digestion products", "value": "not active"}
    ]},
    {"sequence": "GGGCGCCGUCGGUGUGG / CCACACCGACGGCGCCC [Ha-ras artificial dsRNase substrate, both strands gapped]", "values": [
      {"measurement": "activity on this sequence", "setting": "[3]", "value": "active"},
      {"measurement": "activity on this sequence", "setting": "[4]", "value": "active"}
    ]},
    {"sequence": "GGGCGCCGUCGGUGUGG / CCACACCGACGGCGCCC [Ha-ras full oligodeoxynucleotide:RNA duplex]", "values": [
      {"measurement": "activity on this sequence", "setting": "[2]; antisense strand all deoxy (T for U), cleaved, DNA:RNA hybrid", "value": "active"}
    ]},
    {"sequence": "UCAAUGGAGCACAUACAGGG / CCCUGUAUGUGCUCCAUUGA [c-raf RNA gapmer:RNA duplex (SEQ 5/6)]", "values": [
      {"measurement": "activity on this sequence", "setting": "[1]; [5]", "value": "not active"}
    ]}
  ]
}
